Laboratory results as given in the supplement of paper PMC12819154, “High-throughput peptide-centric local stability assay extends protein–ligand identification to membrane proteins, tissues and bacteria” (Nature Structural & Molecular Biology, 2025).
The other results are listed elsewhere or left out. Small differences around the control level are noise.

Chains of the proteins cited; added tags and fusions are not shown. Lines headed by an entry give the natural chain unless they say otherwise; changes in a name come on top.
UniProt Q9BYE2: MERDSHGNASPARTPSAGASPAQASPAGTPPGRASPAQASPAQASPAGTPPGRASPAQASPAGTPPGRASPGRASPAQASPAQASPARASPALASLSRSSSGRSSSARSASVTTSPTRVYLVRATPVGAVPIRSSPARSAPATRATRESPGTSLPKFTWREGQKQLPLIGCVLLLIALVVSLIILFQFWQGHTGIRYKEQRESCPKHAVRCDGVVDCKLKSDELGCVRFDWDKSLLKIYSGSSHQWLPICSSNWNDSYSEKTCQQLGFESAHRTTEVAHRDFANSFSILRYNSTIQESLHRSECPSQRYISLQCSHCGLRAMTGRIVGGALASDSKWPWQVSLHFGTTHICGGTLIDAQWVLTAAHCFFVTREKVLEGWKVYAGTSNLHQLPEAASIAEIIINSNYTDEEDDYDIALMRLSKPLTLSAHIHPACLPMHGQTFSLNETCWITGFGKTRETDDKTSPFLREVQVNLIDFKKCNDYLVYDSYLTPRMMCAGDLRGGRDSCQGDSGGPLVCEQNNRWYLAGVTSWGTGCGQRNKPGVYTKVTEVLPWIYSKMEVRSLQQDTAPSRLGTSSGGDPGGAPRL
UniProt Q9BYT8, whole entry, looked up: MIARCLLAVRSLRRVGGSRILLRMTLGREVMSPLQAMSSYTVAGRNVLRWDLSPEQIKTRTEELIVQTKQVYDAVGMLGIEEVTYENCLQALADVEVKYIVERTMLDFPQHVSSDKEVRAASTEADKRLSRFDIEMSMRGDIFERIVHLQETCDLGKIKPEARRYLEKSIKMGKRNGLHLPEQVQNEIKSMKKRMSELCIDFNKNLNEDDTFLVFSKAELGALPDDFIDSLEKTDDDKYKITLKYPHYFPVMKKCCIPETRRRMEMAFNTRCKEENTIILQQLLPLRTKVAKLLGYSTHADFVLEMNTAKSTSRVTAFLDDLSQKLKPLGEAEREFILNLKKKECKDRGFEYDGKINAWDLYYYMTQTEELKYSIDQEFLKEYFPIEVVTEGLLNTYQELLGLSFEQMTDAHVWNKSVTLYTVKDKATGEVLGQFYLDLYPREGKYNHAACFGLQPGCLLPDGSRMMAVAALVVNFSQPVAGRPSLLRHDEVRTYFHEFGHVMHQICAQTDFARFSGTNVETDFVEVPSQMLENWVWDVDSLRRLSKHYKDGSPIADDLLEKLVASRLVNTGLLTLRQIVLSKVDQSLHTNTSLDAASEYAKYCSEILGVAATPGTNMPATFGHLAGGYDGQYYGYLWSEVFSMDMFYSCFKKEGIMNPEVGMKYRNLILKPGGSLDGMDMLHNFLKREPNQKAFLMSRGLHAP
UniProt Q9BVG4: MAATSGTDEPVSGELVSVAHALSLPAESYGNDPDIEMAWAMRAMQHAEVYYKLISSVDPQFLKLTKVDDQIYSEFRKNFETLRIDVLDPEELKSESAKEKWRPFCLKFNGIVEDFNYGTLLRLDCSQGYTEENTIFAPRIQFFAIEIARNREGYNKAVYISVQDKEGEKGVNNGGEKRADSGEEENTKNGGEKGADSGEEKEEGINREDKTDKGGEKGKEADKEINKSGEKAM
UniProt Q9BXW9: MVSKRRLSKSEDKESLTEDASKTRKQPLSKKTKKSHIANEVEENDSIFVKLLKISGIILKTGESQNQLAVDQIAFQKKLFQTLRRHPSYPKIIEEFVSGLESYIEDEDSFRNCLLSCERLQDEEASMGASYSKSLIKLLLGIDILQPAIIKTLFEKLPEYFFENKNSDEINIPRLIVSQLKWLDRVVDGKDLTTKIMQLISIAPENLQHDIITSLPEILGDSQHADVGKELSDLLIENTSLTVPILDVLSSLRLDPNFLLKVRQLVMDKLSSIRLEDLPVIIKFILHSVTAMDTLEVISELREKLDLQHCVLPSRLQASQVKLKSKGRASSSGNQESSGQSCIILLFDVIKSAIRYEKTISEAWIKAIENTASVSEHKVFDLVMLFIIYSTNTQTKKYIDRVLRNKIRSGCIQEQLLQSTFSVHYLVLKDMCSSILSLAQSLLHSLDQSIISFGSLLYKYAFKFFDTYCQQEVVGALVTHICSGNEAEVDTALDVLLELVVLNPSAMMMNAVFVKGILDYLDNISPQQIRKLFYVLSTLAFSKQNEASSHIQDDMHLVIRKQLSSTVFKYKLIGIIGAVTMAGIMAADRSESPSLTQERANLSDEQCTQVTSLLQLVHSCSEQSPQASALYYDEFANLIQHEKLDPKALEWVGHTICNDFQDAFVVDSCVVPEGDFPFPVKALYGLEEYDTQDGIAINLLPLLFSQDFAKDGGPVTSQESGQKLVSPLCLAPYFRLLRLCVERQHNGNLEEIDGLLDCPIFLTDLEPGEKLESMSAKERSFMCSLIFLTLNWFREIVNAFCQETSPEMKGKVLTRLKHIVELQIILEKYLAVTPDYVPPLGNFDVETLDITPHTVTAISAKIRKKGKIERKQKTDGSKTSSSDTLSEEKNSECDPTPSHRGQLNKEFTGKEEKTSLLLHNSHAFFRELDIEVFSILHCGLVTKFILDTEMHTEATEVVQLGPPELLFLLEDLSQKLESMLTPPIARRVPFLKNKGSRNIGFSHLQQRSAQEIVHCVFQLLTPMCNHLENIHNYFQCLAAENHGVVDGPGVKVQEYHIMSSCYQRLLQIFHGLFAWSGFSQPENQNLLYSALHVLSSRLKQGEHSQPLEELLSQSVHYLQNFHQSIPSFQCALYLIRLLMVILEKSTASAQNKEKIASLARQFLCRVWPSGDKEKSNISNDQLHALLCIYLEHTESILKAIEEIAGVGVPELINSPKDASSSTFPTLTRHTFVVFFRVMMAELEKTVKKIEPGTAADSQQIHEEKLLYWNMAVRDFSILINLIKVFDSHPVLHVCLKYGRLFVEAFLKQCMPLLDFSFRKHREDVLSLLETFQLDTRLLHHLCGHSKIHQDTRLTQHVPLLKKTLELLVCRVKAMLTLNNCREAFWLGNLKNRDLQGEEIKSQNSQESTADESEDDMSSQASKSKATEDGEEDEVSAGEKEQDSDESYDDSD
UniProt Q9BV94: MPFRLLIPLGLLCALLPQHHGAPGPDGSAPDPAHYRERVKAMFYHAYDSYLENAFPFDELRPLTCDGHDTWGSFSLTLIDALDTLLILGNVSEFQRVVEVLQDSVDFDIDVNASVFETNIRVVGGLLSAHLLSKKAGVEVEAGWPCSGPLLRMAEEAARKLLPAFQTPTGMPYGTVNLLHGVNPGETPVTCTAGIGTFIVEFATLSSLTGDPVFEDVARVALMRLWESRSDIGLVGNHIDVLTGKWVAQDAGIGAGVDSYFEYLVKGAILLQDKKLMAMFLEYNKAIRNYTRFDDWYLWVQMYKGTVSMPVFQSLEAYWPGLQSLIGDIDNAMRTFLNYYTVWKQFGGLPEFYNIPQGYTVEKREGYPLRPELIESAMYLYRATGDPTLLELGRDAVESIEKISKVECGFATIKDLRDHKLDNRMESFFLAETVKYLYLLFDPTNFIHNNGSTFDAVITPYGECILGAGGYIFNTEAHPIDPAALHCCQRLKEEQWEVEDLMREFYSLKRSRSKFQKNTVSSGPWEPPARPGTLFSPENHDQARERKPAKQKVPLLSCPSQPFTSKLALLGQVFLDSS
UniProt Q9C005, whole entry: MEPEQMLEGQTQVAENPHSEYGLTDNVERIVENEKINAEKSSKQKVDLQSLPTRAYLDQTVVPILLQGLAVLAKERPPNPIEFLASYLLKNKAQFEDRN
UniProt Q9BWT3: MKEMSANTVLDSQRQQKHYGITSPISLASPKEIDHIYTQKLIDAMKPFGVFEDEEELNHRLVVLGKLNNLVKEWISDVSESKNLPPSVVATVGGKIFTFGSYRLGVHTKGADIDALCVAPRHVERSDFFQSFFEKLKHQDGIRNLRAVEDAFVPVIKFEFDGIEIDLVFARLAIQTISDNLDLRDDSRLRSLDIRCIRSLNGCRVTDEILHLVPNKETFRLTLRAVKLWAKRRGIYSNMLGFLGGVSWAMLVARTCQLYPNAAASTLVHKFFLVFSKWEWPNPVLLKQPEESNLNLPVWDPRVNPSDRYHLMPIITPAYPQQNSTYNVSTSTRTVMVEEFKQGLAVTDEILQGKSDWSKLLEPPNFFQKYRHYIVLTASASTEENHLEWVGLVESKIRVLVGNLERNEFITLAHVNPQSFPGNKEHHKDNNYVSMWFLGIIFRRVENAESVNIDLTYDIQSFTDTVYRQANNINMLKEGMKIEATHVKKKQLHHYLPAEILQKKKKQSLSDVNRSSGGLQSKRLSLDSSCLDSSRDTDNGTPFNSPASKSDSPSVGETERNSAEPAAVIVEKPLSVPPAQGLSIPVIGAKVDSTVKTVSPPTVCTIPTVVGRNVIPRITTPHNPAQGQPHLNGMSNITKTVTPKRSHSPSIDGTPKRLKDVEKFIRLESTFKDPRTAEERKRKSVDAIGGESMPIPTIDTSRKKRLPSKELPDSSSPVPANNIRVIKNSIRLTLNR
UniProt Q9BW92: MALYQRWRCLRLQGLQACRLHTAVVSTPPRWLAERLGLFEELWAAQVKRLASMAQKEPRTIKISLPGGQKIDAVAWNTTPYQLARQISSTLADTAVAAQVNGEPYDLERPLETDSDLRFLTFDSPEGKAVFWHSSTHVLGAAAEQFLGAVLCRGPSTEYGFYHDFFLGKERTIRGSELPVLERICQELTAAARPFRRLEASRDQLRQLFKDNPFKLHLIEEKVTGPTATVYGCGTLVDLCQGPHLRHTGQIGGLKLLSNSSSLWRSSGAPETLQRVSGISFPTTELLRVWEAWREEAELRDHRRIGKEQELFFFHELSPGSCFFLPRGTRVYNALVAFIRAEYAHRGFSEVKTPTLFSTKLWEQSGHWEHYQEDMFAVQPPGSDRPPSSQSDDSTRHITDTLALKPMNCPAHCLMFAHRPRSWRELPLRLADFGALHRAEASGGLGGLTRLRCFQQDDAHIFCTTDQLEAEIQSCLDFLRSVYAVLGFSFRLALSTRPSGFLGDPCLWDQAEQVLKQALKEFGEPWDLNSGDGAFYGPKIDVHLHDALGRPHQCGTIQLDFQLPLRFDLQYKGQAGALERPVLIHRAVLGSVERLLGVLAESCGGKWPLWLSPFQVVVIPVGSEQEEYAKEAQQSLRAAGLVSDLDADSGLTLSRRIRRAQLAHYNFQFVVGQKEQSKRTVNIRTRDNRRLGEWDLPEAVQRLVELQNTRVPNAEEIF
UniProt Q9H0Q0: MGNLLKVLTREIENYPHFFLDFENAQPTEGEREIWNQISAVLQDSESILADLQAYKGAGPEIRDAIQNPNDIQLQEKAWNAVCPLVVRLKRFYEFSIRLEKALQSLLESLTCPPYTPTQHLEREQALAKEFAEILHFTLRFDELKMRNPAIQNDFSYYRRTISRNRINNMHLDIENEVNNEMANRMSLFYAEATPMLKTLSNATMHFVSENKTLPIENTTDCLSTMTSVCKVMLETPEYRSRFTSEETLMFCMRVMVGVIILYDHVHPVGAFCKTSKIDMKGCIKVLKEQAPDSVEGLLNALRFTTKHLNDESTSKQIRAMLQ
UniProt Q9BY44: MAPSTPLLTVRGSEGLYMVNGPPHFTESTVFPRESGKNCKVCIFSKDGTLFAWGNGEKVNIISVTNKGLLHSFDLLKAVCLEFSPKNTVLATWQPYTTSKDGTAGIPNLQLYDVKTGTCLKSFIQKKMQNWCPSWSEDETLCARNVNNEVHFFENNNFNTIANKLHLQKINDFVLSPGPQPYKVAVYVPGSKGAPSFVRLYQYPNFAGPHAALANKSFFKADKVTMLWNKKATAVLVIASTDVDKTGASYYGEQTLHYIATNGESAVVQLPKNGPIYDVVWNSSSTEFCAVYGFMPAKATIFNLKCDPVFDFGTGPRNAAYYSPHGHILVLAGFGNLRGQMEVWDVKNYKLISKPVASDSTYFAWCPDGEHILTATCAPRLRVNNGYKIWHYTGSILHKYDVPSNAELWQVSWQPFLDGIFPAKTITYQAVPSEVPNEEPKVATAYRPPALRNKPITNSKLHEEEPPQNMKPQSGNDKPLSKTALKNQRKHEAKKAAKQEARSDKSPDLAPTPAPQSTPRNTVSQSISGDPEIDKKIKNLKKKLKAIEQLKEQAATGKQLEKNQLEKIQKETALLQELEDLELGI
UniProt Q9H0A8, whole entry: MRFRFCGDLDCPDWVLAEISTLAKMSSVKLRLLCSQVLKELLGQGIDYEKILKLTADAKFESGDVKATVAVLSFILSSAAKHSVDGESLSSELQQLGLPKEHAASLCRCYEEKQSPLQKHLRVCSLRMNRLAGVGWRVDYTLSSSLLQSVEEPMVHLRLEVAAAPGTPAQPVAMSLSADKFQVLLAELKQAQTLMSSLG
UniProt Q9BY43: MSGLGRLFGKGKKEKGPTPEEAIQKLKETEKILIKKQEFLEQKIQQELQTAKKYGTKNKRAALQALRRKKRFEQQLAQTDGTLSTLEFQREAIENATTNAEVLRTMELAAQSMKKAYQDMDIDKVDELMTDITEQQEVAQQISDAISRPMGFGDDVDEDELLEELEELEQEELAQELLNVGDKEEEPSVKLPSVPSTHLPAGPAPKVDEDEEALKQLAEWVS

compound: Cc1nc(Nc2ncc(C(=O)Nc3c(C)cccc3Cl)s2)cc(N2CCN(CCO)CC2)n1 [dasatinib]; experiment: log2 fold change of tryptic peptide abundance, ligand vs vehicle (limited proteolysis) (log2 ratio); higher = more trypsin-susceptible (destabilized); settings: ligand concentration: 5 uM; sample: K562 cleared lysate

| Target | log2 fold change |
| --- | --- |
| UniProt Q9BYE2 (peptide sequence: NKPGVYTK, peptide start residue: 224) | 0.0133 |
| NLN (peptide sequence: VTAFLDDLSQK, peptide start residue: 315) (UniProt Q9BYT8) | 0.26 |
| UniProt Q9BVG4 (peptide sequence: ADSGEEENTKNGGEK, peptide start residue: 179) | 0.46 |
| FANCD2 (peptide sequence: QCMPLLDFSFRK, peptide start residue: 1308) (UniProt Q9BXW9) | 0.331 |
| EDEM2 (peptide sequence: ATGDPTLLELGR, peptide start residue: 383) (UniProt Q9BV94) | -0.0359 |
| DPY30 (peptide sequence: QKVDLQSLPTR, peptide start residue: 44) (UniProt Q9C005) | -0.28 |
| PAPOLG (peptide sequence: MKEMSANTVLDSQR, peptide start residue: 1) (UniProt Q9BWT3) | 0.206 |
| QRSL1 (peptide sequence: LLDQGALLMGK, peptide start residue: 108) (UniProt Q9H0R6) | 0.199 |
| TARS2 (peptide sequence: AEASGGLGGLTR, peptide start residue: 439) (UniProt Q9BW92) | -0.155 |
| FAM49A (peptide sequence: VMLETPEYR, peptide start residue: 233) (UniProt Q9H0Q0) | -0.0712 |
| LSG1 (peptide sequence: TFFHQENVR, peptide start residue: 595) (UniProt Q9H089) | 0.56 |
| EIF2A (peptide sequence: DGTLFAWGNGEK, peptide start residue: 47) (UniProt Q9BY44) | -0.627 |
| COMMD4 (peptide sequence: EHAASLCRCYEEK, peptide start residue: 101) (UniProt Q9H0A8) | 0.174 |
| LRRCC1 (peptide sequence: KVWGHELAQQGSSLAQNR, peptide start residue: 767) (UniProt Q9C099) | -0.622 |
| CHMP4A (peptide sequence: QEFLEQK, peptide start residue: 37) (UniProt Q9BY43) | 0.31 |

Already shown: an excerpt of the list.

| Target | log2 fold change |
| --- | --- |
| NLN (peptide sequence: VTAFLDDLSQK, peptide start residue: 315) (UniProt Q9BYT8) | 0.26 |
| UniProt Q9BVG4 (peptide sequence: ADSGEEENTKNGGEK, peptide start residue: 179) | 0.46 |
